Results are given in words; binding and its absence hold for the method and conditions named. Some results given as binding are weak or reduced against the parent protein; the word gives no strength. Where a sequence is shown, tags or fusion partners need not be part of it.
Target: T1, RBBP6_(1-335), FLAG-tagged, purified (human) (UniProt Q7Z6E9)
T1 sequence: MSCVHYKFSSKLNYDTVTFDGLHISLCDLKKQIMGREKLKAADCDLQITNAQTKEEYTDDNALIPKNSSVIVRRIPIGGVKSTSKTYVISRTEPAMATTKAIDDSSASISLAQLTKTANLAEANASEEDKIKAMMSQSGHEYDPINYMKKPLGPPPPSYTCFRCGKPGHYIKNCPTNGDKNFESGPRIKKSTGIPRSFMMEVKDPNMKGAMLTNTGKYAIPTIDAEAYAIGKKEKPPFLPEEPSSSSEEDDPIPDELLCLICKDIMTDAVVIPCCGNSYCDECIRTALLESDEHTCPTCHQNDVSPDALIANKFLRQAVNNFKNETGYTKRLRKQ
Experiment: pull-down

Amino acid sequences for entries named in this document (tags omitted). A change or cut given only in a name is not applied to a line headed by its entry.
UniProt Q9UKF6: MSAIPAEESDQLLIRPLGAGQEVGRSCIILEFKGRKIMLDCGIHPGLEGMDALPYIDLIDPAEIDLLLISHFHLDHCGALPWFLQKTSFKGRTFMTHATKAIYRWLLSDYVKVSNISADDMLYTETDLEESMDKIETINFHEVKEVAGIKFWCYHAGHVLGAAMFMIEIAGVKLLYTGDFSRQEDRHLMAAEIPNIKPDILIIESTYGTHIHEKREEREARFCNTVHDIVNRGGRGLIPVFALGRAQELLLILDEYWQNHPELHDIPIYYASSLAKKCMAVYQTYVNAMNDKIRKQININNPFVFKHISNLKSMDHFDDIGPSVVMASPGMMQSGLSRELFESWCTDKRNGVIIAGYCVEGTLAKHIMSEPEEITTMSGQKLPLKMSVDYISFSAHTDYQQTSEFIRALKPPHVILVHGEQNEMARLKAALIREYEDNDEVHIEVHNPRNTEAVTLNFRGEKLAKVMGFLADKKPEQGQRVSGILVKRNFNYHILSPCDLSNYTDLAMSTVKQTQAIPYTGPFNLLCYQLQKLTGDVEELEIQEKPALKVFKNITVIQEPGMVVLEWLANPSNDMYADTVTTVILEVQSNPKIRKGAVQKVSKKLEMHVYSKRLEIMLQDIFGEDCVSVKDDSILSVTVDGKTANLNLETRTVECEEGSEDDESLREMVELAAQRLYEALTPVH

binding: binds
Substance: four-subunit mCF (from UniProt Q9UKF6 1-684; Q9P2I0 1-782; Q92797 1-1274; P33240 1-577) (complex)

From article doi:10.1101/2021.11.02.466878
